Experimental data: the supplement of paper PMC10849652
The list shows a part of the results.

By UniProt entry, the sequences of proteins in these tests, tags left out. Where a name states a change or a piece, a line headed by the entry shows the natural chain unless it says otherwise.
UniProt P16260: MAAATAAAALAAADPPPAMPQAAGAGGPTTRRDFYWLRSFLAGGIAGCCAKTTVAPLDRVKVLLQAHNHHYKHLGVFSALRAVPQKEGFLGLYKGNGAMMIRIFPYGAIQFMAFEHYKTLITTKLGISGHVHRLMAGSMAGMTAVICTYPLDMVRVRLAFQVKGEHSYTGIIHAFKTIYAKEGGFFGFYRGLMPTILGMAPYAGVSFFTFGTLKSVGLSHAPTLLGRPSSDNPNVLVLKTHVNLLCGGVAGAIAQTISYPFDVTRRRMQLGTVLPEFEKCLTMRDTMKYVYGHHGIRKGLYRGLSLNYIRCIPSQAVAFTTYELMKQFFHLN
UniProt Q70HW3: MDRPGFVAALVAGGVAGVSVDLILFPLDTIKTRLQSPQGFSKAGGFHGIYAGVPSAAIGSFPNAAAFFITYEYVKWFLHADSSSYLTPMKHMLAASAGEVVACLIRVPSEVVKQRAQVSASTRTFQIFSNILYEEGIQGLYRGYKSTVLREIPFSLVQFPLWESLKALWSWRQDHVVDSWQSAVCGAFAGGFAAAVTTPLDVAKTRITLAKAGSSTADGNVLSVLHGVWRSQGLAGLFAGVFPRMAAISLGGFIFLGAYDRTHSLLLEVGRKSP
UniProt Q9UHW9: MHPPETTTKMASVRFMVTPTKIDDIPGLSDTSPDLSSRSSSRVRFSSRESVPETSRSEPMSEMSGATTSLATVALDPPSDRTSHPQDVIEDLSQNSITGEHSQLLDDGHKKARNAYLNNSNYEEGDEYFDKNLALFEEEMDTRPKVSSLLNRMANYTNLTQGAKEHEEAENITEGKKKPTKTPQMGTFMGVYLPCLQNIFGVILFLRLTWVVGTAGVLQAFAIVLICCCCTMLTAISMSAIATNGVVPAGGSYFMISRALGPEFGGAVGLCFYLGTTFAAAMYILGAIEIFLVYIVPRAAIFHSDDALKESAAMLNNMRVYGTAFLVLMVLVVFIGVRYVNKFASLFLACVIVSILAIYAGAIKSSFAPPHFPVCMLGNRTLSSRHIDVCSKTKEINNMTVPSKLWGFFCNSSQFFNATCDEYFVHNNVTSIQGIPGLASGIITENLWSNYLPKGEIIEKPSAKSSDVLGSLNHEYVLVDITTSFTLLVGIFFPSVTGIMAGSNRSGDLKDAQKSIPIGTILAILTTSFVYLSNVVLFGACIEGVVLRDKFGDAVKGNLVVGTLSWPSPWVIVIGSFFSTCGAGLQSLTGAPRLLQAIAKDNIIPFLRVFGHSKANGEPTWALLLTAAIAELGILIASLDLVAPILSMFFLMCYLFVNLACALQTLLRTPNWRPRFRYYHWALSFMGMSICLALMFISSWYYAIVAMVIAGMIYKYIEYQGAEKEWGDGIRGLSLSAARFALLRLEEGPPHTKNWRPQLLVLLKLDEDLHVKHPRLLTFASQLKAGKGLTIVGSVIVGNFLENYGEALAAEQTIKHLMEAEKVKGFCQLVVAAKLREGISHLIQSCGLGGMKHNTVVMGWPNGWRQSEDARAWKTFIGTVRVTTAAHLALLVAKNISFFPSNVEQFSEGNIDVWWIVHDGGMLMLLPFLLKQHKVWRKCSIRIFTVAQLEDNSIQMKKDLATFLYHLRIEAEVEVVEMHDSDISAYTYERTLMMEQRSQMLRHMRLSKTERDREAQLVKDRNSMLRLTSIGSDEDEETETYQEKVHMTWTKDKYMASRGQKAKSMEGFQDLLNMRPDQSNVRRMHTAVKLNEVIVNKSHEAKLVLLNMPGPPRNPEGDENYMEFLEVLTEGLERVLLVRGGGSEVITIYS
UniProt Q9Y619: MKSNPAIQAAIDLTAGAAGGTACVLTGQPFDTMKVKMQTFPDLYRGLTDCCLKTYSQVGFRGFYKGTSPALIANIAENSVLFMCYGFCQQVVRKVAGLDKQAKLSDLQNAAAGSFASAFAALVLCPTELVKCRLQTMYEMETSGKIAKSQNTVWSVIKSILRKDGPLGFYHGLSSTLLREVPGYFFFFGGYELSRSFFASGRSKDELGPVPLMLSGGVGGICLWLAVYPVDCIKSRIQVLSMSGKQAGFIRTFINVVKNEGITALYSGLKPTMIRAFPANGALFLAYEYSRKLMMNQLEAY
UniProt O60779: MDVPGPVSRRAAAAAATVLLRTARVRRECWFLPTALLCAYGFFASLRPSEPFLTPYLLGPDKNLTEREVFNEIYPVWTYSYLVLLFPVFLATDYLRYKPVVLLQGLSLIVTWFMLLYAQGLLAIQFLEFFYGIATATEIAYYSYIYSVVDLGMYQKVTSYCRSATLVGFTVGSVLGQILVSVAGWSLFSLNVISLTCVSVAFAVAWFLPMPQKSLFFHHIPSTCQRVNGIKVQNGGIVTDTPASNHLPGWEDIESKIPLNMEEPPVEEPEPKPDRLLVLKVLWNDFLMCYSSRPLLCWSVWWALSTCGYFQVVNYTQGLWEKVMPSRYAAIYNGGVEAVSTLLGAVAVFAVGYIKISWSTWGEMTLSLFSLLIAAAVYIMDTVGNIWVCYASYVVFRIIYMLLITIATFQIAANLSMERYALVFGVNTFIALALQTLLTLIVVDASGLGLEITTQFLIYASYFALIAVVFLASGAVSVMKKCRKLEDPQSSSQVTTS
UniProt Q8TAD4: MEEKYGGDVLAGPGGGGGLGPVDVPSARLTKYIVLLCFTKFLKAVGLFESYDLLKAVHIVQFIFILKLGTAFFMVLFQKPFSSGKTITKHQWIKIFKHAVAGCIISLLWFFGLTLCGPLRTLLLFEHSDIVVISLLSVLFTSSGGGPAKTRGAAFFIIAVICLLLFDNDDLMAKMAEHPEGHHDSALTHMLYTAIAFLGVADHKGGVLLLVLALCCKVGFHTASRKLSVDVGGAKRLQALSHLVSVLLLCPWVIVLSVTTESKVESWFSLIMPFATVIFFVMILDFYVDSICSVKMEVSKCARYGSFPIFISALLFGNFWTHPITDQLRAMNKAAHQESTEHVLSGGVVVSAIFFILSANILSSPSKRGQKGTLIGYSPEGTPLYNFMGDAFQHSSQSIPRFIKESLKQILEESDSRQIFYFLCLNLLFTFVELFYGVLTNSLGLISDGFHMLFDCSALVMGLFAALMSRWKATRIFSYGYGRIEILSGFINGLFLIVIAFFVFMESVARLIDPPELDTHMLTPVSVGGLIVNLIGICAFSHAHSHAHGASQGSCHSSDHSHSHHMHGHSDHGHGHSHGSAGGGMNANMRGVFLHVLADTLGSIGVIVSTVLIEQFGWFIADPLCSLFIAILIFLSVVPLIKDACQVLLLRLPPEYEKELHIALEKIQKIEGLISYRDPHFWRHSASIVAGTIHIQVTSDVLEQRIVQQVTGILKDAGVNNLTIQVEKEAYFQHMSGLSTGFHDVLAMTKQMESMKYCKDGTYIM
UniProt O43772: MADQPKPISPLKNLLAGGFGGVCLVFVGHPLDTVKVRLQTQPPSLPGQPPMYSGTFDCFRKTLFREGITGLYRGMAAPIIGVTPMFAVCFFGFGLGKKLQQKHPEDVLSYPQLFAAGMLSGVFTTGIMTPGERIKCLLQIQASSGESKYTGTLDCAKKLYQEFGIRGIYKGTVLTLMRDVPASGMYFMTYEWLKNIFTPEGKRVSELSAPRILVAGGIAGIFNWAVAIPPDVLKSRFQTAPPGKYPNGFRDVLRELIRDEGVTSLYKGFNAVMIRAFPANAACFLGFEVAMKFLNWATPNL
UniProt O00400: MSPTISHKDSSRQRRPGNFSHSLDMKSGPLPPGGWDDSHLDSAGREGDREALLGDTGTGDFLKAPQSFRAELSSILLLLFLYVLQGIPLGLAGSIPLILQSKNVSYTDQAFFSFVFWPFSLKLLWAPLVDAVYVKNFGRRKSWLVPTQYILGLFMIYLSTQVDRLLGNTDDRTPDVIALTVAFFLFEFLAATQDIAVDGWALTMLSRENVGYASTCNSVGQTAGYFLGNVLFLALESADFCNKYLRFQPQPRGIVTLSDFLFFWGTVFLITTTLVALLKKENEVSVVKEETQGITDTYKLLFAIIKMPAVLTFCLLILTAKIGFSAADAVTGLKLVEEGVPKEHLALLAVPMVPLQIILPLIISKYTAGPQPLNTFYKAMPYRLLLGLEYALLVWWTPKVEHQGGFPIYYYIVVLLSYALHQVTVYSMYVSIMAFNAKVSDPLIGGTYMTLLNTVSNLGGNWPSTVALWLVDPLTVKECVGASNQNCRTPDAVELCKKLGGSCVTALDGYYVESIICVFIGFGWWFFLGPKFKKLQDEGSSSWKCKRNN
UniProt Q8TB61: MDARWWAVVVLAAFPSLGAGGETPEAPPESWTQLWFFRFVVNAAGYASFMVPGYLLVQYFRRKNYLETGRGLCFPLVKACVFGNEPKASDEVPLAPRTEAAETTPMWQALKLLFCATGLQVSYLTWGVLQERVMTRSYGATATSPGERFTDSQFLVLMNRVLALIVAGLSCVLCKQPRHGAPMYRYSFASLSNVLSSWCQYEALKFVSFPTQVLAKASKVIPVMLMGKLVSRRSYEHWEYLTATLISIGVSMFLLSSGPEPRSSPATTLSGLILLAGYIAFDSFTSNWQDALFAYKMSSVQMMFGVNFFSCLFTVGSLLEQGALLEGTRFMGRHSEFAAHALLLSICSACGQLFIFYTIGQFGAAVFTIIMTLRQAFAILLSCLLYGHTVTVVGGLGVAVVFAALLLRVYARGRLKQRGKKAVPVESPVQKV
UniProt P55011: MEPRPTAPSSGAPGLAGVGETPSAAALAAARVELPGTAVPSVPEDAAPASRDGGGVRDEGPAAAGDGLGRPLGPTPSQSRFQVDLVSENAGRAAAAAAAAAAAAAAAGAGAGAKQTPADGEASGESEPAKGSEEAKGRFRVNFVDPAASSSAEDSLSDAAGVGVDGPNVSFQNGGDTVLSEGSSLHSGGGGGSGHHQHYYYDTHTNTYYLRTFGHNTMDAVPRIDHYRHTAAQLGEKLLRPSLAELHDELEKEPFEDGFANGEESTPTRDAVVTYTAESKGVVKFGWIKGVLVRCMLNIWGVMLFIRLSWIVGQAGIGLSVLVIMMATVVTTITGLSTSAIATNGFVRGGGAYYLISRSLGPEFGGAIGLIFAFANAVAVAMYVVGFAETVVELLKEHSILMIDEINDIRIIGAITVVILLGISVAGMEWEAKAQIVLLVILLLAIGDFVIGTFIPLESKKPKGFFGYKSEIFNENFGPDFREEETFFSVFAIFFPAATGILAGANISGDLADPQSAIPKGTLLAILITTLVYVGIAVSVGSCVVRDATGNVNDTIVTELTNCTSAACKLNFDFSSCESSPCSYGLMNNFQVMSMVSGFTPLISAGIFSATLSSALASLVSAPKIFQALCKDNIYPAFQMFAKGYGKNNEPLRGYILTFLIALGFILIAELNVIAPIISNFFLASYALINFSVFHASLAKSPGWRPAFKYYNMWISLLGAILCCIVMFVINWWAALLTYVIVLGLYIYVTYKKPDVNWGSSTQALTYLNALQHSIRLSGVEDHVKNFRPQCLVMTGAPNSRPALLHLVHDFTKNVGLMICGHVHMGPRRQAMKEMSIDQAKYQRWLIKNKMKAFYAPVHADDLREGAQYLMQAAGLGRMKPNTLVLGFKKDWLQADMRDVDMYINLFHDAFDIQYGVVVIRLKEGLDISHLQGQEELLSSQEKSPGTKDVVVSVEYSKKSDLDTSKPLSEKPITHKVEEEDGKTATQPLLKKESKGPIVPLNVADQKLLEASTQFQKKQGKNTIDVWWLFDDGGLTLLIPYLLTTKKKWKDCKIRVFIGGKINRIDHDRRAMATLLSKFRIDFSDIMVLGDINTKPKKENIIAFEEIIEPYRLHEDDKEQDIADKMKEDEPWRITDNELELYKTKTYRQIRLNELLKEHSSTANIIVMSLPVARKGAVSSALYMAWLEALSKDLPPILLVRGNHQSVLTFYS
UniProt P11166: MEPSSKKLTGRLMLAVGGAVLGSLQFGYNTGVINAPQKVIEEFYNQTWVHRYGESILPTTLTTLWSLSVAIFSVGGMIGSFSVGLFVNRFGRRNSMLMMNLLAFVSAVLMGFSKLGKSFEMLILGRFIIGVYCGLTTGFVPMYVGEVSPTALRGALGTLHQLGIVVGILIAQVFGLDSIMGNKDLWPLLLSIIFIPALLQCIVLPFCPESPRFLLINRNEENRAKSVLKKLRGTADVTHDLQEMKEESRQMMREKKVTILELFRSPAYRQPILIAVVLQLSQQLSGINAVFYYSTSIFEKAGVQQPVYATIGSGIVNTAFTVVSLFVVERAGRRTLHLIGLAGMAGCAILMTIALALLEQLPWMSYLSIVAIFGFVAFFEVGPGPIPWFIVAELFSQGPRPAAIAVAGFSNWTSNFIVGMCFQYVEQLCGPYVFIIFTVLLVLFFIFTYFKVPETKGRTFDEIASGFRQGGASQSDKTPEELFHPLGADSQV

Tests used:
Assay in all cases: log2 fold change, soluble protein after heating vs DMSO (PISA); higher = thermal stabilisation; K562 cells, 10 uM, 30 min; active = over 0.2 and 3.5 SD of the protein, either way, in both replicates (recomputed)
[1] = compound: CS(=O)(=O)c1ccc(-c2cnc(N)c(C(=O)Nc3ccccc3)n2)cc1
How it was run: (§1)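 K562 cells at 2×10^6 cells/mL were exposed to 10 μM compound for 30 min, then aliquots were heated for 3 min across 48°C-58°C, pooled, and extracted in PBS containing 0.5% NP-40 at 4°C. The supernatant after 21,000xg for 90 min was taken as soluble protein and measured by TMTpro 16plex LC-MS/MS with channel sums equalised. Thermal stability is reported relative to control samples, with values from duplicates. Fold changes are given on a log2 scale.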

crizotinib = compound: C[C@@H](Oc1cc(-c2cnn(C3CCNCC3)c2)cnc1N)c1c(Cl)ccc(F)c1Cl [crizotinib]
How it was run: as §1

[2] = compound: C[C@@H]1COCCN1C2=NC(=NC(=C2)C3(CC3)S(=O)(=O)C)C4=C5C=CNC5=CC=C4
How it was run: as §1

[3] = compound: C[C@H](C1=CC=C(C=C1)C(=O)NC2=C3C=CNC3=NC=C2)N
How it was run: as §1

duvelisib = compound: C[C@H](Nc1ncnc2nc[nH]c12)c1cc2cccc(Cl)c2c(=O)n1-c1ccccc1 [duvelisib]
How it was run: as §1

gandotinib = compound: Cc1cc(Nc2cc(CN3CCOCC3)c3nc(C)c(Cc4ccc(Cl)cc4F)n3n2)n[nH]1 [gandotinib]
How it was run: as §1

tozasertib = compound: Cc1cc(Nc2cc(N3CCN(C)CC3)nc(Sc3ccc(NC(=O)C4CC4)cc3)n2)n[nH]1 [tozasertib]
How it was run: as §1

[4] = compound: Cc1cc(SCc2sc(-c3ccc(C(F)(F)F)cc3)nc2C)ccc1OCC(=O)O
How it was run: as §1

doramapimod = compound: Cc1ccc(-n2nc(C(C)(C)C)cc2NC(=O)Nc2ccc(OCCN3CCOCC3)c3ccccc23)cc1 [doramapimod]
How it was run: as §1

ispinesib = compound: Cc1ccc(C(=O)N(CCCN)[C@@H](c2nc3cc(Cl)ccc3c(=O)n2Cc2ccccc2)C(C)C)cc1 [ispinesib]
How it was run: as §1

bafetinib = compound: Cc1ccc(NC(=O)c2ccc(CN3CC[C@H](N(C)C)C3)c(C(F)(F)F)c2)cc1Nc1nccc(-c2cncnc2)n1 [bafetinib]
How it was run: as §1

[5] = compound: Cc1cccc(CC(=O)N2CCc3c2ccc(-c2cn(C)c4ncnc(N)c24)c3F)n1
How it was run: as §1

nilotinib = compound: Cc1cn(-c2cc(NC(=O)c3ccc(C)c(Nc4nccc(-c5cccnc5)n4)c3)cc(C(F)(F)F)c2)cn1 [nilotinib]
How it was run: as §1

[6] = compound: Cc1nc(Nc2n[nH]c3c2CN(C(=O)N[C@H](CN(C)C)c2ccccc2)C3(C)C)c2sccc2n1
How it was run: as §1

dasatinib = compound: Cc1nc(Nc2ncc(C(=O)Nc3c(C)cccc3Cl)s2)cc(N2CCN(CCO)CC2)n1 [dasatinib]
How it was run: as §1

[7] = compound: Cc1ncc(-c2ccnc(Nc3ccc(S(C)(=O)=O)cc3)n2)n1C(C)C
How it was run: as §1

[8] = compound: Cn1cc(-c2ccc3c(c2)CCN3C(=O)Cc2cccc(C(F)(F)F)c2)c2c(N)ncnc21
How it was run: as §1

[9] = compound: Cn1cc(-c2ccc3nnc(C(F)(F)c4ccc5ncccc5c4)n3n2)cn1
How it was run: as §1

tipifarnib = compound: Cn1cncc1[C@@](N)(c1ccc(Cl)cc1)c1ccc2c(c1)c(-c1cccc(Cl)c1)cc(=O)n2C [tipifarnib]
How it was run: as §1

mubritinib = compound: FC(F)(F)c1ccc(/C=C/c2nc(COc3ccc(CCCCn4ccnn4)cc3)co2)cc1 [mubritinib]
How it was run: as §1

Measured: log2 fold change

SLC25A16 (UniProt P16260)
inactive: [1] 0.075 | crizotinib 0.062 | [2] 0.19 | [3] 0.043 | duvelisib 0.179 | gandotinib -0.219 | tozasertib -0.057 | [4] -0.03 | doramapimod -0.026 | ispinesib 0.005 | bafetinib 0.04 | [5] -0.083 | nilotinib 0.095 | [6] -0.039 | dasatinib -0.012 | [7] -0.006 | [8] -0.101 | [9] -0.074 | tipifarnib 0.035 | mubritinib -0.058

SLC25A26 (UniProt Q70HW3)
inactive: [1] 0.056 | crizotinib -0.037 | [2] 0.058 | [3] 0.044 | duvelisib 0.007 | gandotinib 0.037 | tozasertib -0.156 | [4] -0.067 | doramapimod -0.193 | ispinesib 0.044 | bafetinib 0.033 | [5] 0.098 | nilotinib -0.036 | [6] -0.126 | dasatinib 0.01 | [7] -0.141 | [8] 0.004 | [9] 0.128 | mubritinib 0.133

SLC12A6 isoform 2 (UniProt Q9UHW9)
inactive: [1] 0.08 | crizotinib -0.013 | [2] 0.042 | [3] -0.098 | duvelisib 0.056 | gandotinib -0.051 | tozasertib -0.025 | [4] -0.047 | doramapimod -0.027 | ispinesib -0.132 | bafetinib 0.01 | [5] 0.045 | nilotinib 0.036 | [6] -0.077 | dasatinib 0 | [7] -0.012 | [8] -0.014 | [9] -0.021 | tipifarnib 0.002 | mubritinib 0.065

SLC25A15 (UniProt Q9Y619)
inactive: [1] 0.025 | crizotinib 0.093 | [2] 0.02 | [3] -0.044 | duvelisib 0.017 | gandotinib 0.035 | tozasertib -0.027 | [4] -0.028 | doramapimod -0.002 | ispinesib 0.046 | bafetinib -0.056 | [5] 0.004 | nilotinib 0 | [6] 0.021 | dasatinib 0.033 | [7] -0.064 | [8] 0.001 | [9] -0.037 | tipifarnib 0.058 | mubritinib 0.008

SLC19A2 (UniProt O60779)
inactive: [1] -0.148 | crizotinib 0.166 | [2] -0.281 | [3] -0.232 | duvelisib -0.258 | tozasertib 0.027 | [4] -0.075 | doramapimod -0.067 | ispinesib 0.057 | nilotinib 0.209 | [6] -0.114 | dasatinib -0.006 | [7] -0.108 | [8] -0.239 | [9] -0.115 | tipifarnib 0.006

SLC7A1 (UniProt P30825)
inactive: [1] 0.044 | crizotinib -0.043 | [2] 0.043 | [3] -0.078 | duvelisib 0.088 | gandotinib -0.069 | tozasertib -0.014 | [4] -0.039 | doramapimod 0.001 | ispinesib -0.119 | bafetinib -0.008 | [5] -0.004 | nilotinib 0.009 | [6] -0.007 | dasatinib 0.034 | [7] 0.004 | [8] 0 | [9] -0.013 | tipifarnib 0.043 | mubritinib 0.018

SLC30A5 (UniProt Q8TAD4)
inactive: [1] -0.036 | crizotinib 0.051 | [2] 0.095 | [3] -0.001 | duvelisib 0.028 | gandotinib -0.155 | tozasertib -0.05 | [4] -0.004 | doramapimod -0.078 | ispinesib -0.024 | bafetinib 0.041 | [5] -0.023 | nilotinib -0.09 | [6] 0.141 | dasatinib -0.065 | [7] -0.017 | [8] 0.123 | [9] -0.038 | tipifarnib -0.03 | mubritinib 0.026

SLC25A20 (UniProt O43772)
inactive: [1] -0.004 | crizotinib 0.023 | [2] 0.021 | [3] -0.127 | duvelisib 0.039 | gandotinib -0.044 | tozasertib -0.039 | [4] -0.089 | doramapimod -0.024 | ispinesib -0.037 | bafetinib -0.059 | [5] 0.027 | nilotinib -0.016 | [6] 0.015 | dasatinib 0.008 | [7] -0.039 | [8] 0.011 | [9] 0.068 | tipifarnib -0.046 | mubritinib 0.032

SLC33A1 (UniProt O00400)
inactive: [1] -0.008 | crizotinib 0.062 | [2] 0.086 | [3] -0.095 | duvelisib 0.05 | gandotinib -0.025 | tozasertib -0.019 | [4] -0.002 | doramapimod -0.055 | ispinesib 0.121 | bafetinib -0.003 | [5] -0.051 | nilotinib 0.031 | [6] 0.022 | dasatinib 0.045 | [7] -0.067 | [8] 0.001 | [9] -0.098 | tipifarnib 0.013 | mubritinib -0.012

SLC35B2 (UniProt Q8TB61)
inactive: [1] 0.026 | crizotinib -0.017 | [2] 0.073 | [3] -0.021 | duvelisib 0.024 | gandotinib -0.062 | tozasertib -0.03 | [4] -0.02 | doramapimod 0.002 | ispinesib 0.003 | bafetinib -0.069 | [5] -0.004 | nilotinib -0.018 | [6] 0.004 | dasatinib 0.028 | [7] -0.002 | [8] 0.011 | [9] 0.015 | tipifarnib -0.052 | mubritinib 0.008

SLC25A25 isoform 3 (UniProt Q6KCM7)
inactive: [1] -0.027 | crizotinib 0.007 | [2] 0.001 | [3] -0.028 | duvelisib 0.023 | gandotinib -0.059 | tozasertib -0.01 | [4] -0.02 | doramapimod 0.004 | ispinesib -0.004 | bafetinib -0.022 | [5] -0.02 | nilotinib -0.009 | [6] 0.024 | dasatinib 0.018 | [7] -0.016 | [8] 0.063 | [9] -0.008 | tipifarnib 0.006 | mubritinib 0.011

SLC12A2 (UniProt P55011)
inactive: [1] -0.025 | crizotinib 0.045 | [2] 0.015 | [3] -0.082 | duvelisib 0.037 | gandotinib -0.043 | tozasertib -0.017 | [4] -0.028 | doramapimod -0.004 | ispinesib 0.076 | bafetinib -0.004 | [5] 0.046 | nilotinib 0.049 | [6] -0.01 | dasatinib 0.013 | [7] 0.041 | [8] 0.078 | [9] -0.008 | tipifarnib 0.028 | mubritinib 0.034

SLC25A12 (UniProt O75746)
inactive: [1] 0.035 | crizotinib 0.069 | [2] 0.01 | [3] -0.037 | duvelisib 0.021 | gandotinib -0.036 | tozasertib -0.035 | [4] -0.037 | doramapimod -0.015 | ispinesib 0.023 | bafetinib -0.045 | [5] -0.021 | nilotinib -0.028 | [6] 0.028 | dasatinib 0.021 | [7] -0.03 | [8] 0.007 | [9] 0.013 | tipifarnib 0.042 | mubritinib -0.063

SLC2A1 (UniProt P11166)
inactive: [1] 0.057 | crizotinib 0.099 | [2] 0.007 | [3] -0.084 | duvelisib 0.077 | gandotinib -0.052 | tozasertib -0.008 | [4] -0.088 | doramapimod 0.011 | ispinesib 0.072 | bafetinib 0.019 | [5] -0.046 | nilotinib 0.035 | [6] -0.001 | dasatinib -0.002 | [7] 0.013 | [8] 0.025 | [9] -0.01 | tipifarnib 0.018 | mubritinib 0.033

SLC2A3 (UniProt P11169)
inactive: [1] -0.012 | crizotinib 0.06 | [2] 0.033 | [3] -0.15 | duvelisib 0.025 | gandotinib -0.075 | tozasertib -0.053 | [4] -0.052 | doramapimod -0.034 | ispinesib 0.093 | bafetinib 0.058 | [5] -0.044 | nilotinib 0.054 | [6] 0.015 | dasatinib 0.021 | [7] -0.011 | [8] 0.019 | [9] 0.048 | tipifarnib 0.057 | mubritinib 0.053

Fetched one by one from the list above (two):
SLC2A3 (UniProt P11169)
inactive: [1] -0.012 | crizotinib 0.06 | [2] 0.033 | [3] -0.15 | duvelisib 0.025 | gandotinib -0.075 | tozasertib -0.053 | [4] -0.052 | doramapimod -0.034 | ispinesib 0.093 | bafetinib 0.058 | [5] -0.044 | nilotinib 0.054 | [6] 0.015 | dasatinib 0.021 | [7] -0.011 | [8] 0.019 | [9] 0.048 | tipifarnib 0.057 | mubritinib 0.053

SLC2A1 (UniProt P11166)
inactive: [1] 0.057 | crizotinib 0.099 | [2] 0.007 | [3] -0.084 | duvelisib 0.077 | gandotinib -0.052 | tozasertib -0.008 | [4] -0.088 | doramapimod 0.011 | ispinesib 0.072 | bafetinib 0.019 | [5] -0.046 | nilotinib 0.035 | [6] -0.001 | dasatinib -0.002 | [7] 0.013 | [8] 0.025 | [9] -0.01 | tipifarnib 0.018 | mubritinib 0.033

Following part

SLC4A7 isoform 7 (UniProt Q9Y6M7)
inactive: [1] 0.002 | crizotinib 0 | [2] 0.02 | [3] 0.131 | duvelisib 0.015 | tozasertib -0.06 | [4] -0.076 | doramapimod 0.123 | ispinesib 0.101 | bafetinib 0.006 | nilotinib 0.296 | [6] -0.153 | dasatinib -0.043 | [7] -0.228 | [8] -0.103 | [9] 0.016 | tipifarnib -0.043 | mubritinib -0.067
